In the supplement of paper PMC10849652:
The list shows a part of the results.

Protein sequences, listed by entry. Tags and fused reporters are not part of them. Lines headed by an entry give the natural chain unless they say otherwise; changes in a name come on top.
UniProt P16422: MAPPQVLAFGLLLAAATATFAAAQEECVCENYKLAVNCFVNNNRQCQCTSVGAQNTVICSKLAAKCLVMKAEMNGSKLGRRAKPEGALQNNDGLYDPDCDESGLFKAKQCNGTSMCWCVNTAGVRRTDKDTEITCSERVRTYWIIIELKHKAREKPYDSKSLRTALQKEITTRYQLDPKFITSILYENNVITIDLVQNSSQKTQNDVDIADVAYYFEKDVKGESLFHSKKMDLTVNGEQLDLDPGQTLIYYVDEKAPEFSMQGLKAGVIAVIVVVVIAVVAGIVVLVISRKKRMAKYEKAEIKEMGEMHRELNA
UniProt Q9GZU8: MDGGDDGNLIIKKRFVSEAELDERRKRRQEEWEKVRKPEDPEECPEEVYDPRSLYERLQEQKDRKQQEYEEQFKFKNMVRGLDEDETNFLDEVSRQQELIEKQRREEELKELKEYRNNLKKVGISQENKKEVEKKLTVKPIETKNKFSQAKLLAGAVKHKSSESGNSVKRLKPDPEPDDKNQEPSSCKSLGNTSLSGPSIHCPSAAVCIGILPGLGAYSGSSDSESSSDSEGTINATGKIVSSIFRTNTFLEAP
UniProt Q96PL5: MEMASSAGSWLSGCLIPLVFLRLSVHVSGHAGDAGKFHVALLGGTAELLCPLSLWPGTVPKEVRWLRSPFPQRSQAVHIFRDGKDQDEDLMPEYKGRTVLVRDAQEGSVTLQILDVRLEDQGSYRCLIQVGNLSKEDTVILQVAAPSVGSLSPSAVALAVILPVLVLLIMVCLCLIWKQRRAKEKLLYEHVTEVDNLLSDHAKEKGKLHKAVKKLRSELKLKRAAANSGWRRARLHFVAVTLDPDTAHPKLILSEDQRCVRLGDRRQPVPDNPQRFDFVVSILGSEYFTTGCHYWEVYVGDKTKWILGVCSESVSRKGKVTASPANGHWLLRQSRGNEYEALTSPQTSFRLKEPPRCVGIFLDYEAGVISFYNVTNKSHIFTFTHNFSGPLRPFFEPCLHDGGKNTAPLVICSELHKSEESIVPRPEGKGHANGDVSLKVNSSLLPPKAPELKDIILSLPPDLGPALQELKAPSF
UniProt Q9Y624, whole entry, looked up, stated change not applied: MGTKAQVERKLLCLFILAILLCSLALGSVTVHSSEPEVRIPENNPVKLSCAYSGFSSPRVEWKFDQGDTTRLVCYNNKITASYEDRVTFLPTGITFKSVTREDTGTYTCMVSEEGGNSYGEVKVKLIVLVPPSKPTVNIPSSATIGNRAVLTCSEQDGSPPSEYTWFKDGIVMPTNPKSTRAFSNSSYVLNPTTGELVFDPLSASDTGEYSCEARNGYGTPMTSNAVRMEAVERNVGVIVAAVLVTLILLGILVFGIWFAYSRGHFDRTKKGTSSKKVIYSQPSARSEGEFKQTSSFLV
UniProt Q96HE7: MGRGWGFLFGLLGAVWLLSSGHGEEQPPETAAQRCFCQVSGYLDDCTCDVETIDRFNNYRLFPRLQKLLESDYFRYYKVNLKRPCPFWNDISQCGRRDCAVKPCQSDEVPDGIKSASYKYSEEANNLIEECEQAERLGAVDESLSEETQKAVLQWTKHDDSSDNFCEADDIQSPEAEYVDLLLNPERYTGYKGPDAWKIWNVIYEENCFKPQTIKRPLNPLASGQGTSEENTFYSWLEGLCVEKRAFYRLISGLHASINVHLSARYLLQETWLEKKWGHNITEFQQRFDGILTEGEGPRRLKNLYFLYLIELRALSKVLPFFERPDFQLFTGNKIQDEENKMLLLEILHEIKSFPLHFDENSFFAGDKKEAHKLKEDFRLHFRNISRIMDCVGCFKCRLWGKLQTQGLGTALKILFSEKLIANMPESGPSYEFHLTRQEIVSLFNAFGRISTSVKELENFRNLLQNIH
UniProt P05413, whole entry, looked up: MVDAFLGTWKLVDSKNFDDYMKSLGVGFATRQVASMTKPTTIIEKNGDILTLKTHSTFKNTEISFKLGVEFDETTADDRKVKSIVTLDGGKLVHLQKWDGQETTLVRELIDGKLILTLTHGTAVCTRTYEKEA
UniProt Q9BYI3: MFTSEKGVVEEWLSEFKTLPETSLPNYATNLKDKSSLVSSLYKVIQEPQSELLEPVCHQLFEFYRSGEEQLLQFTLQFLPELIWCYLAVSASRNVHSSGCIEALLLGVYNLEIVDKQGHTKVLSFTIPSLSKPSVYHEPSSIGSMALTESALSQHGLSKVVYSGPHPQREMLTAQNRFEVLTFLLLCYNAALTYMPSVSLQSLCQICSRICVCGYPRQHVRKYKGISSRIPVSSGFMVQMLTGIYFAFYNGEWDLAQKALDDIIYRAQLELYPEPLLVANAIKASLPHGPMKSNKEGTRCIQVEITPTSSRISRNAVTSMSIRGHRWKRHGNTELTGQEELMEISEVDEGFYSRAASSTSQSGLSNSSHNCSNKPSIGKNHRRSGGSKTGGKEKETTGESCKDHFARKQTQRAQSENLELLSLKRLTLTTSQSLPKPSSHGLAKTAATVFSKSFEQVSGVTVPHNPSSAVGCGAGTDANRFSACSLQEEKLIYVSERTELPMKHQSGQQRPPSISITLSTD
UniProt Q96RQ1: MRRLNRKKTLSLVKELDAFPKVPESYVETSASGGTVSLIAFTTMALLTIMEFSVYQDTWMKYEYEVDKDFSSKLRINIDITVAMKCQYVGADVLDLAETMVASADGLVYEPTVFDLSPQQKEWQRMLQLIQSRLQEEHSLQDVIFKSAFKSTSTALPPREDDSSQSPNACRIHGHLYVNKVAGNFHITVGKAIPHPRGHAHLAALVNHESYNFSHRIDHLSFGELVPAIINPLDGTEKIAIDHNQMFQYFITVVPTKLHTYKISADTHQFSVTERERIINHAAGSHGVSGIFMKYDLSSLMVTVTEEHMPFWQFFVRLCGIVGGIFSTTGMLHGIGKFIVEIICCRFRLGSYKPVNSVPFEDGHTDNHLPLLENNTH
UniProt Q9NQT5, whole entry, looked up: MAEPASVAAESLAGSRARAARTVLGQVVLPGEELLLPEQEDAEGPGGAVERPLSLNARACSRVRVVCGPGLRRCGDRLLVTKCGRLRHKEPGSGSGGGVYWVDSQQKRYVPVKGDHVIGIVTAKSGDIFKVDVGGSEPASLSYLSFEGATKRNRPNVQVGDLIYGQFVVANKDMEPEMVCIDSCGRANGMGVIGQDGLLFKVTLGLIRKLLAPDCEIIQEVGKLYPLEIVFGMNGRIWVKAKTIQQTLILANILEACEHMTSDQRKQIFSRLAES
UniProt O60645: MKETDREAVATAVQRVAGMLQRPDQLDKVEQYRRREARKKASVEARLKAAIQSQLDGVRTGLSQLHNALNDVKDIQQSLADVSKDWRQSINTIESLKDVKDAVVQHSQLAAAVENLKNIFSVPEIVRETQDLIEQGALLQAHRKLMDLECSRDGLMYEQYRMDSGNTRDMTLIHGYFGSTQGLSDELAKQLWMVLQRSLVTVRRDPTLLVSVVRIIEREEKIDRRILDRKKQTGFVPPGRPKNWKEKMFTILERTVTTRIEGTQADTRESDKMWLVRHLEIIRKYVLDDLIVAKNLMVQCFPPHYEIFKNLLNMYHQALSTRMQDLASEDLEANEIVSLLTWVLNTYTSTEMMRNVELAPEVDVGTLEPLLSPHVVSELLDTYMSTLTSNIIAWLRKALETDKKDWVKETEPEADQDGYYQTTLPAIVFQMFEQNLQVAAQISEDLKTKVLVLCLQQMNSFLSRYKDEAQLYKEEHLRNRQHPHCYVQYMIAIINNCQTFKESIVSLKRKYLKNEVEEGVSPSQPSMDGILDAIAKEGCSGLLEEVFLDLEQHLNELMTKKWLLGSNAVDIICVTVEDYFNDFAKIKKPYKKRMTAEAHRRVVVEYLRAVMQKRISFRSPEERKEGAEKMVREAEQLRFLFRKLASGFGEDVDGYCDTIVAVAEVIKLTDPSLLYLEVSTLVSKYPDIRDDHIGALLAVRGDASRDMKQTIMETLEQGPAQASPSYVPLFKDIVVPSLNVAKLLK
UniProt Q13216, whole entry, looked up: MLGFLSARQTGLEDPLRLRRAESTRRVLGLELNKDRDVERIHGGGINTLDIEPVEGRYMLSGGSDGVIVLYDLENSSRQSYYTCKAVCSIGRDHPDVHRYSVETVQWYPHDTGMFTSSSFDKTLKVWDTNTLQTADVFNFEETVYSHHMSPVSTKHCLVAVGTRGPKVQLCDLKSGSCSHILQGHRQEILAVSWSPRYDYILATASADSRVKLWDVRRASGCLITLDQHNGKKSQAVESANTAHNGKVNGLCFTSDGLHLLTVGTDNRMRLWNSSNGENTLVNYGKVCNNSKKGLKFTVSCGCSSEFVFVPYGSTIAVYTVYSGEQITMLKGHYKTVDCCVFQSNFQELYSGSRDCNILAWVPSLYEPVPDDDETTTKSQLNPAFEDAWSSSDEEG
UniProt Q01469, whole entry, looked up: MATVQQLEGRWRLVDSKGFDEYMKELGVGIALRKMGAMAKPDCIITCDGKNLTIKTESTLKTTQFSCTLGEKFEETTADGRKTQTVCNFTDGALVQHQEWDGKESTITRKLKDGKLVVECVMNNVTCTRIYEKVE
UniProt Q9UKR5: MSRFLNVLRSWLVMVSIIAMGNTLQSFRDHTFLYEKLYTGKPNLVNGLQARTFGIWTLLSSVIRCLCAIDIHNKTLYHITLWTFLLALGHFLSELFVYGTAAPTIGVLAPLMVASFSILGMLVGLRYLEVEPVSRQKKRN
UniProt Q9Y3B2, whole entry, looked up: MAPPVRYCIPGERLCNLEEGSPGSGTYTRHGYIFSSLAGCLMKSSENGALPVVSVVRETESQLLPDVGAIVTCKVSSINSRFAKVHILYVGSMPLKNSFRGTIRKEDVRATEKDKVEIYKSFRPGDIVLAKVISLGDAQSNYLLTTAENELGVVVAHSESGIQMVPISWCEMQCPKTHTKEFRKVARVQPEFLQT
UniProt Q8WUF8: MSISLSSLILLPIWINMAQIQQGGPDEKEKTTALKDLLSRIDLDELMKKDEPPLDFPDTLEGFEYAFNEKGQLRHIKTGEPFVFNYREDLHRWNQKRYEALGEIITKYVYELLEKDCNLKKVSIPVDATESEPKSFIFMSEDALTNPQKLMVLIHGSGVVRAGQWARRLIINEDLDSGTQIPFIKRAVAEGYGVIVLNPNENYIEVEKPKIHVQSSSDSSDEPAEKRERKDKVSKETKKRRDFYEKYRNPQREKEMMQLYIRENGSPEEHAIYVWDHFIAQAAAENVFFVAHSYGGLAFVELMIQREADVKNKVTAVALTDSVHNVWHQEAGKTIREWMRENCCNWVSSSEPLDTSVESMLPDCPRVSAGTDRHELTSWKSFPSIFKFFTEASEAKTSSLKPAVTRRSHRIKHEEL
UniProt Q9NZB2: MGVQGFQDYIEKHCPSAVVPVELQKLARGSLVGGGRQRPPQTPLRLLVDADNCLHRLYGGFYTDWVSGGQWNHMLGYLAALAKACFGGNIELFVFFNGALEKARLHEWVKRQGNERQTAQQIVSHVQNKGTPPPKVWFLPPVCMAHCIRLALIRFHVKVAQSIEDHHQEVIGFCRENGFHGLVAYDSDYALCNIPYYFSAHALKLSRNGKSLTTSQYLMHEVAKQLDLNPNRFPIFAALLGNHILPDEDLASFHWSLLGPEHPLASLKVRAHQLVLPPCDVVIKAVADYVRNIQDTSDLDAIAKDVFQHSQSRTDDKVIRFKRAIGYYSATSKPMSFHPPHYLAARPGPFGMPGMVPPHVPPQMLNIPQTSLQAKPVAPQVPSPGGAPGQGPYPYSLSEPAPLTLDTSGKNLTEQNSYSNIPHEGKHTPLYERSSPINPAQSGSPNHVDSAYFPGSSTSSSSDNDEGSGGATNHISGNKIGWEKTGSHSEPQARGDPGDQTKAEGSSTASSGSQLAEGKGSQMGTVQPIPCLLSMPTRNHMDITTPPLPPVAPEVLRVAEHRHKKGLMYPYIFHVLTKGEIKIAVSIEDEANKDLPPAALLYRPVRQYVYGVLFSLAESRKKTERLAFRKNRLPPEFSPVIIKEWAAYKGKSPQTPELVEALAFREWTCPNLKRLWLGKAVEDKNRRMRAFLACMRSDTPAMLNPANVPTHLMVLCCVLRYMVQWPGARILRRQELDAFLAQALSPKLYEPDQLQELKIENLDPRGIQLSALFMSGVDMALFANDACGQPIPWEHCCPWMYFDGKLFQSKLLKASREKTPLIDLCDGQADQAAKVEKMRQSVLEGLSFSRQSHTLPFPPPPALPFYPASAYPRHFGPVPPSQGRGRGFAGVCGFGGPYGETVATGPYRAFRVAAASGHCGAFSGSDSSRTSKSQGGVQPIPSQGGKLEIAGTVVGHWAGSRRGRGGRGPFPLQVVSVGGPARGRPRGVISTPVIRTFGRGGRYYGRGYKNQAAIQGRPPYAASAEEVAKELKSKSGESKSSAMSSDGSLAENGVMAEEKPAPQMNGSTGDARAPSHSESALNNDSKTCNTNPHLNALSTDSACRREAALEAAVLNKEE
UniProt Q15024, whole entry, looked up: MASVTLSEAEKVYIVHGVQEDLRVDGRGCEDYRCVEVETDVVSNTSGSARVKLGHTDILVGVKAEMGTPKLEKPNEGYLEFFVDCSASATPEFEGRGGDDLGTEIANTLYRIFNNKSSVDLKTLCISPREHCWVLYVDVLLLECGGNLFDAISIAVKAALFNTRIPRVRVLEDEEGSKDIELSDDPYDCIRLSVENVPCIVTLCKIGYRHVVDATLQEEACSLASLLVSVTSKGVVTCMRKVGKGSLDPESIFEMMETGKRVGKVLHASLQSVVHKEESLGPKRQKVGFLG

compound: c1cn2cc(-c3ccc4cn[nH]c4c3)nc(Nc3ccc(N4CCOCC4)cc3)c2n1 [entospletinib]; experiment: log2 fold change, soluble protein after heating vs DMSO (PISA); higher = thermal stabilisation; K562 cells, 10 uM, 30 min; active = over 0.2 and 3.5 SD of the protein, either way, in both replicates (recomputed)
In short: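 K562 cells at 2×10^6 cells/mL were exposed to 10 μM compound for 30 min, then aliquots were heated for 3 min across 48°C-58°C, pooled, and extracted in PBS containing 0.5% NP-40 at 4°C. The supernatant after 21,000xg for 90 min was taken as soluble protein and measured by TMTpro 16plex LC-MS/MS with channel sums equalised. Thermal stability is reported relative to control samples, with values from duplicates. Fold changes are given on a log2 scale.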

log2 fold change, inactive:
ERC1 (UniProt Q8IUD2) -0.083
EXOSC4 (UniProt Q9NPD3) -0.038
EXT2 isoform 3 (UniProt Q93063) -0.037
EPCAM (UniProt P16422) 0.025
FAM192A (UniProt Q9GZU8) 0.018
ERMAP (UniProt Q96PL5) -0.036
FAM120B (UniProt Q96EK7) -0.046
EVPL (UniProt Q92817) -0.04
F11R (UniProt Q9Y624) 0.034
EXOG (UniProt Q9Y2C4) -0.074
ERO1A (UniProt Q96HE7) 0.006
ETFA (UniProt P13804) 0.006
ERI3 (UniProt H0Y4B0) 0.555
FABP3 (UniProt P05413) 0.259
FAM126A (UniProt Q9BYI3) 0.144
ERCC6L (UniProt Q2NKX8) 0.137
ERGIC2 (UniProt Q96RQ1) -0.015
EXOSC3 (UniProt Q9NQT5) -0.021
ETNPPL (UniProt Q8TBG4) 0.292
EXOC3 (UniProt O60645) 0.027
ERCC8 (UniProt Q13216) 0.052
FABP5 (UniProt Q01469) 0.026
ERCC4 (UniProt Q92889) -0.02
ERG28 (UniProt Q9UKR5) -0.019
EXOSC1 (UniProt Q9Y3B2) 0.089
FAM172A (UniProt Q8WUF8) -0.165
FAF1 (UniProt Q9UNN5) 0.016
FAM120A isoform 6 (UniProt Q9NZB2) 0.084
EXOSC7 (UniProt Q15024) -0.008
FAM136A (UniProt Q96C01) -0.059

A run of entries taken from the entries so far:
log2 fold change, inactive:
FAM192A (UniProt Q9GZU8) 0.018
ERMAP (UniProt Q96PL5) -0.036
